The data set can be described thus: self-splicing fitness, log relative to wild type (ln ratio); higher = more splicing; Tetrahymena group I intron in knt gene, E. coli kanamycin selection, DiMSum; sequences stand for … in CUCUCU…GGAGGGAAAAGUUAUCAGGCAUGCACCUGGUAGCUAGUCUUUAAACCAAUAGAUUGCAUCGGUUUAAAAGGCAAGACCGUCAAAUUGCGGGAAAGGGGUCAACAGCCGUUCAGUACCAAGUCUCAGGGGAAACUUUGAGAUGGCCUUGCAAAGGGUAUGGUAAUAAGCUGACGGACAUGGUCCUAACCACGCAGCCAAGUCCUAAGUCAACAGAUCUUCUGUUGAUAUGGAUGCAGUUCACAGACUAAAUGUCGGUCGGGGAAGAUGUAUUCUUCUCAUAAGAUAUAGUCGGACCUCUCCUUAAUGGGAGCUAGCGGAUGAAGUGAUGCAACACUGGAGCCGCUGGGAACUAAUUUGUAUGCGAAAGUAUAUUGAUUAGUUUUGGAGUACUCGUGGUCG
The method in brief:
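Fitness was computed with DiMSum as the error-weighted combination of replicate fold changes, kanamycin versus none, each normalised to wild type. The library randomised all eight intron nucleotides of the P1ex region, with the intron placed in the knt kanamycin-resistance gene on pET-22b(+) in E. coli BL21(DE3). Six replicate transformations were grown overnight at 37°C or 30°C on LB agar with or without 25 μg/mL kanamycin, plus 100 μg/mL carbenicillin, 50 μM IPTG and 0.2% rhamnose. Pooled colonies were amplicon-sequenced on an Illumina HiSeq 2500.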

± gives the uncertainty stated by the source. Many entries were measured with a wide error.

As to UUAGAGCAAUAUUACGUUAC, the “self-splicing fitness (ln)” value (30 °C) is -3.72 ± 0.59.
UGAGAGCAAUAUUACGAUAU: the “self-splicing fitness (ln)” value by setting is: (30 °C) -2.85 ± 0.62; (37 °C) -2.8 ± 0.44.
In the case of UUCCAGCAAUAUUACGAAGU, the “self-splicing fitness (ln)” value (30 °C) was -4.22 ± 0.59.
For GAGAAGCAAUAUUACGAAGG, where the note is “37 °C”, the “self-splicing fitness (ln)” value is -3.57 ± 1.
Turning to CUUUAGCAAUAUUACGAUUA, the “self-splicing fitness (ln)” value (30 °C) was -3.5 ± 1.
On to GCUCAGCAAUAUUACGCGGG, for which the “self-splicing fitness (ln)” value was -3.41 ± 0.2 (30 °C) and -2.78 ± 0.2 (37 °C).
For the sequence AGGGAGCAAUAUUACGAUAU, the “self-splicing fitness (ln)” value (30 °C) was -2.38 ± 0.57.
Turning to GUUGAGCAAUAUUACGAGCC, where the note is “37 °C”, the “self-splicing fitness (ln)” value was -1.9 ± 0.79.
Regarding AAAGAGCAAUAUUACGGCAC, the “self-splicing fitness (ln)” value reads like this: (30 °C) -2.72 ± 0.19; (37 °C) -2.01 ± 0.21.
Consider GGAUAGCAAUAUUACGGUAG, for which, under “30 °C”, the “self-splicing fitness (ln)” value was -4.26 ± 0.59.
Same read-out and setting: the figure for GUGCAGCAAUAUUACGACGG is -5.12 ± 1; for CUAUAGCAAUAUUACGGACC it is -3.19 ± 0.61.
For the sequence CUUAAGCAAUAUUACGAAGU, the “self-splicing fitness (ln)” value is, setting by setting: (30 °C) -2.9 ± 0.13; (37 °C) -2.19 ± 0.18.
Consider CAGUAGCAAUAUUACGAGGU, for which the “self-splicing fitness (ln)” value (30 °C) is -4.55 ± 0.52.
Turning to UUUGAGCAAUAUUACGGAAG, the “self-splicing fitness (ln)” value (30 °C) was -2.95 ± 0.69.
On to AUAGAGCAAUAUUACGGUGG, for which the “self-splicing fitness (ln)” value (37 °C) is -0.693 ± 1.4.
The same measure, in the same setting: the figure for UCGGAGCAAUAUUACGUAAC is -1.9 ± 0.57.
On to UGAAAGCAAUAUUACGCGUU, for which the “self-splicing fitness (ln)” value was -3.19 ± 0.19 (30 °C) and -3.1 ± 0.29 (37 °C).
With GACAAGCAAUAUUACGAUGU, the “self-splicing fitness (ln)” value by setting is: (30 °C) -1.66 ± 0.067; (37 °C) -1.65 ± 0.11.
With UGUGAGCAAUAUUACGUCUC, where the note is “37 °C”, the “self-splicing fitness (ln)” value is -3.16 ± 0.74.
AGAUAGCAAUAUUACGGACC: the “self-splicing fitness (ln)” value runs as follows: (30 °C) -0.504 ± 0.15; (37 °C) -0.242 ± 0.12.
As for GCCGAGCAAUAUUACGUUGA, the “self-splicing fitness (ln)” value (30 °C) was -3 ± 0.16 and the “self-splicing fitness (ln)” value (37 °C) is -2.88 ± 0.2.
For CAUAAGCAAUAUUACGUCUA the same measures were -2.41 ± 0.14 and -1.4 ± 0.11.
The matching figures for CCUCAGCAAUAUUACGCGCC: -4.39 ± 1 and -1.71 ± 0.65.
Consider CCCGAGCAAUAUUACGCACG, for which the “self-splicing fitness (ln)” value (30 °C) is -4.17 ± 1.1.
UGGGAGCAAUAUUACGCGGA: the “self-splicing fitness (ln)” value (30 °C) is -3.56 ± 0.52.
As to CCGGAGCAAUAUUACGUAUC, the “self-splicing fitness (ln)” value (30 °C) is -4.48 ± 0.59.
In the case of AUUAAGCAAUAUUACGACCC, where the note is “37 °C”, the “self-splicing fitness (ln)” value stood at 0.725 ± 0.57.
Turning to UACAAGCAAUAUUACGCCGC, the “self-splicing fitness (ln)” value (30 °C) was -3.68 ± 0.62.
On to CAGCAGCAAUAUUACGAUGA, for which the “self-splicing fitness (ln)” value was -2.7 ± 0.21 (30 °C) and -1.31 ± 0.14 (37 °C).
For the sequence GGUGAGCAAUAUUACGAAGG, the “self-splicing fitness (ln)” value (30 °C) was -3.59 ± 0.6.
Regarding UCCGAGCAAUAUUACGGCUU, the “self-splicing fitness (ln)” value (37 °C) is -3.34 ± 1.
Turning to UGGGAGCAAUAUUACGUAAA, the “self-splicing fitness (ln)” value (37 °C) is -2.49 ± 0.55.
GAGCAGCAAUAUUACGGAUC: the “self-splicing fitness (ln)” value is -0.51 ± 0.12 (30 °C) and -0.724 ± 0.12 (37 °C).
GUGGAGCAAUAUUACGACCG: under “37 °C”, the “self-splicing fitness (ln)” value was -1.8 ± 0.67.
Turning to GGUGAGCAAUAUUACGCCUU, the “self-splicing fitness (ln)” value (30 °C) is -2.16 ± 0.57.
For the sequence GGCUAGCAAUAUUACGCCAC, the “self-splicing fitness (ln)” value (37 °C) was -0.00393 ± 0.58.
The same measure, in the same setting: the figure for UACGAGCAAUAUUACGAGAA is -1.83 ± 1.1.
On the same count and under the same terms, the figure for GAGAAGCAAUAUUACGUCCU is -0.17 ± 0.54.
In the case of GGGCAGCAAUAUUACGCUAC, the “self-splicing fitness (ln)” value is -4.39 ± 1 (30 °C) and 0.279 ± 0.5 (37 °C).
Regarding CUUAAGCAAUAUUACGCAAU, the “self-splicing fitness (ln)” value (30 °C) was -4.29 ± 0.75.
For the sequence UUCUAGCAAUAUUACGAACU, the “self-splicing fitness (ln)” value is, setting by setting: (30 °C) -2.95 ± 1.1; (37 °C) -2.9 ± 1.1.
As to AUCGAGCAAUAUUACGAUGG, the “self-splicing fitness (ln)” value (30 °C) was -3.31 ± 0.56.
In the case of AUCUAGCAAUAUUACGAAGC, the “self-splicing fitness (ln)” value (37 °C) was -1.93 ± 0.81.
Take AGUGAGCAAUAUUACGCUUA: the “self-splicing fitness (ln)” value (30 °C) was -4.87 ± 1.
Regarding CUGUAGCAAUAUUACGGACA, the “self-splicing fitness (ln)” value is -2.09 ± 1.4 (30 °C) and -0.924 ± 0.93 (37 °C).
For UCAGAGCAAUAUUACGCCGC the same measures were -2.6 ± 0.68 and -1.26 ± 0.71.
CCCGAGCAAUAUUACGAAUC: the “self-splicing fitness (ln)” value (37 °C) is -3.14 ± 0.6.
For UACAAGCAAUAUUACGAACC, the “self-splicing fitness (ln)” value (30 °C) was -3.39 ± 0.56 and the “self-splicing fitness (ln)” value (37 °C) is -0.357 ± 0.23.

These data come from the supplement of paper PMC7877785.
